Reference: patent publication CN1930187A
Results are given in words; binding and its absence hold for the method and conditions named. Some results given as binding are weak or reduced against the parent protein; the word gives no strength.

Tests used:
[1] = target: EGFRvIII-rabbit Fc fusion protein (EGFRvIII-RbFc) (human; rabbit) (UniProt P00533); assay: rEGFRvIII Western, reduced, EGFRvIII-rabbit Fc fusion protein
[2] = target: EGFRvIII (full length, expressed by cells: NR6 M, H1477, 300.19/EGFRvIII) (human) (UniProt P00533); assay: EGFRvIII FACS
[3] = target: EGFRvIII-rabbit Fc fusion protein (EGFRvIII-RbFc) (human; rabbit) (UniProt P00533); assay: EGFRvIII Western, non-reduced (幼稚), EGFRvIII-rabbit Fc fusion protein
[4] = target: T1, EGFRvIII PEP3 peptide conjugated to OVA (EGFRvIII肽-OVA) (human); assay: binding to pep3 (XenoMax screen)
T1 sequence (peptide, Cys 14 coupled to maleimide-activated ovalbumin (peptide,OVA 14.5,1)): LEEKKGNYVVTDHC

Measured: binding

B1: AB-EGFRvIII-XG1-095 (antibody, human IgG1, V domains shown)
VH: QVQLQESGPFLVKPSQTLSLTCTVSGGSISSGGYYWSWIRQHPGKGLEWIGFIYYRGNTYYNPSLKSRVTISVDTSKNQFSLKLSSVTAADTAVYYCARDGYCSRTGCYGGWFDPWGQGTLVTVSP
VL: DIVMTQTPLSSPVTLGQPASISCRSSQSLIHTDGNIYLSWLQQRPGQPPRLLIYKISNRFSGVPDRFSGSGAGTDFTLKISRVEAEDVGVYYCMQGTQFPITFGQGTRLEIK
binds: all assays above
